Experimental findings from publication doi:10.1101/153262 are described below.

No constants are given. Whether binding was seen depends on the method and setting. Some entries that bind do so weakly or less than the wild type.

T1: Enterococcus italicus Cas10 (Csm1) subunit of the EiCsm(1-5) type III-A interference complex (Enterococcus italicus DSM-15952) (UniProt E6LHV7)
T1 sequence: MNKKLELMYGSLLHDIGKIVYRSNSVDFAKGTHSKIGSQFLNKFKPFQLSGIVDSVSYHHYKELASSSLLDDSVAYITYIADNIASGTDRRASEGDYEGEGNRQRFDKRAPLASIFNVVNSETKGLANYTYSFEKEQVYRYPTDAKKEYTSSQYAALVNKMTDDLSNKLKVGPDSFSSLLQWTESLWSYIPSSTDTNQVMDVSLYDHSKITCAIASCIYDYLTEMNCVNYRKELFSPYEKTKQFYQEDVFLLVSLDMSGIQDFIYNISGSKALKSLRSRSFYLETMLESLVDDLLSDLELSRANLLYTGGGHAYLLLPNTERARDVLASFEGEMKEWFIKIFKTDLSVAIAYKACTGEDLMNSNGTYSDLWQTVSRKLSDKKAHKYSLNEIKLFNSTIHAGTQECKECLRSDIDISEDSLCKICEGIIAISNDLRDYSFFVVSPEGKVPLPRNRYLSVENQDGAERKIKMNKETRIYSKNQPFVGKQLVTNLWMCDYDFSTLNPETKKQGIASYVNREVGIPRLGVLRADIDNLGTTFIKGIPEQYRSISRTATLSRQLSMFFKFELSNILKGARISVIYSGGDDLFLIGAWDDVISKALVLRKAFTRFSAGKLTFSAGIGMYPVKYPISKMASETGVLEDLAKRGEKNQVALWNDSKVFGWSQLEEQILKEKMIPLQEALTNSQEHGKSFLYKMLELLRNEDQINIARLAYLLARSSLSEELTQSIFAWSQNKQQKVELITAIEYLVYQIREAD

B1: Enterococcus italicus Csm4 subunit of the EiCsm(1-5) complex (protein, UniProt E6LHV4 1-307)
chain: MNQLVVKLVKLTFKSPVHFGMKRLSDSNHTIAADTLFSALIIEALQQQLELSHLLNNLVITDLFPYNKTSYFLPKPLIRIEGKKGDESGYKAFKKLTYIPVENYSEYLRGEIDSLEASKIAESLNLGKASLSTKVSLQAVDHNGESEPYSVGNFTFYPESGLYFLAKGNADTIGQLEILMHALQYSGIGGKRSAGYGQFRCTIEDSGKFDSLLSQTGNIAILLSSAMASDEELVDCLEDARYLLKKRTGFVQSKTYADQLVKKKDFYAFSAGSTFYQKFNGKIFDVSDNGRHSVYRYAKAFWLEGKI
B2: Enterococcus italicus Csm3 subunit of the EiCsm(1-5) complex (enzyme, UniProt E6LHV5 1-214)
chain: MYSKIRIVGKIDVLTGLHIGGGGETSMIGAIDSPVVRDPYSRLPIIPGSSIKGKMRSLLAKHIGLIPGQKMHNQDAPEILRLFGSSQKGAIQSSRLQISDAFFSKASQEEFDKKDLAYTETKFENTISRLTAVANPRQIERVTRGASFDFHIIYNVENINEVMADFENIKTAIHLLENDYLGGGGTRGNGRIRFVIDSIDTVVGDFDSSNLSIK
B3: Enterococcus italicus Csm3 D32A (enzyme, UniProt E6LHV5 1-214)
chain: MYSKIRIVGKIDVLTGLHIGGGGETSMIGAIASPVVRDPYSRLPIIPGSSIKGKMRSLLAKHIGLIPGQKMHNQDAPEILRLFGSSQKGAIQSSRLQISDAFFSKASQEEFDKKDLAYTETKFENTISRLTAVANPRQIERVTRGASFDFHIIYNVENINEVMADFENIKTAIHLLENDYLGGGGTRGNGRIRFVIDSIDTVVGDFDSSNLSIK
B4: Enterococcus italicus Csm2 subunit of the EiCsm(1-5) complex (protein, UniProt E6LHV6 1-140)
chain: MELAKTKTGEMIDLNFARKVVEENKRVKDNRGRQEIVLFNGLTTSKLRNLLELINHVYTKVYNSDDTTLSEDVRDELEYLKVKFAYESGREPAVRTFIEKTYVDKLVDVVLKKNTKKIFLDYCKYFEALVAYAKFYRMGD
B5: Enterococcus italicus Csm5 subunit of the EiCsm(1-5) complex (protein, UniProt E6LHV3 1-349)
chain: MIEKVYQVKLKVYGPVHIGSGKIIRKQEYIYDRRKSLAHIVDGPNLVKFLNKKGKFTAYLQYLNTTKERADLYTFLRQEQIDTNDWKTFVLYTERVNQGKIDMKDHNPYSRTSTNRRQVDKGMNDLHLFVRDGRGDLYIPGSSLKGALRTVLEGANQSAEAFHSLSISDSLPIDPKNLAIYQKIDINKELKPMPLYRECVNVGTTVEFTMKINSDDWTIEKIEKQIQQAYLQYWNKWFVGMVTTPGGKAFIKGGGLPSVLHAKHRPTVLFLGGGTGFPSKTTHYLQKPKEQAQKDIFAILQRRFRNVYGKMATVPKNVPMVLKGTVNDSTNKWYQQGVCLLEFQPIGEA

The assay concerns the target T1, Enterococcus italicus Cas10 (Csm1) subunit of the EiCsm(1-5) type III-A interference complex (Enterococcus italicus DSM-15952). The experiment in a line: co-purification.
Consider B1, for which the binding result was “binds”. Under B2 stands “binds”; under B3, “binds”; under B4, “binds”. With B5 the entry was “binds”.
